According to PubChem BioAssay AID493014 (National Center for Advancing Translational Sciences (NCATS), 2011):
In all, about 340,000 compounds went through this assay and about 170 (0.05%) were called active. This list was built around the results that the source calls inconclusive (neither active nor inactive); the mix of calls is not that of the screen. Calls come from the whole dose curve; as a rule, active = well fitted inhibition curve with a large enough effect in the signal ratio, with a control signal flat (not every such curve was filed as active); inconclusive = small, poorly fitted or top-dose-only effect, or effect the other way, or a change in a side signal; inactive = flat fitted curve, though single readings scatter; the % refers to the signal ratio. Where the call is inconclusive, the potency comes from a doubtful curve fit.
Potency is the fitted concentration of half-maximal effect.

Assay: qHTS Assay to Find Inhibitors of Chronic Active B-Cell Receptor Signaling;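 for activity change, negative = inhibition: plate controls were basal doxycycline-induced cells for no effect and cells given 10 µM MG132 for full effect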
Conditions: ABC-DLBCL IkBa-CBG/CBR reporter, luminescence ratio (green luciferase fused to IkBa over red control in TMD8 lymphoma cells), 4 h; activity change, negative = inhibition: at 46.1 µM (top of the series)
Method in brief: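 Compounds up to 46 uM were incubated four hours with TMD8 cells whose green CBG68 luciferase is fused to IkappaBalpha; red CBR luminescence normalised the signal, and concentration-effect curves were fitted to fusion, red and ratio data.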
With `COc1cccc(-c2nc3ccccc3c(=O)o2)c1` the Potency was inconclusive: 25.9 µM [rising, single point]. For `C#CCNc1ccc([N+](=O)[O-])cc1`, the activity change, negative = inhibition was “inactive”. For `Oc1ccc(Cl)cc1C1=NNC(c2cccs2)C1` (stereo unspecified), the activity change, negative = inhibition was inconclusive: 11.7%. With `N#CC1=C(C2CC2)CC(c2ccccc2)C(C#N)=C1N` (stereo unspecified) the activity change, negative = inhibition was inconclusive: -1.1%. In the case of `CCN(CC(=O)Nc1ccc(C(=O)Nc2ccc(OC)cc2)cc1)Cc1nc2ccccc2c(=O)[nH]1`, the activity change, negative = inhibition is reported as inconclusive: 20.6%. For `COc1ccc(NC(=S)N/N=C/c2cccn2Cc2ccccc2F)cc1`, the activity change, negative = inhibition was “inactive”. With `CN(Cc1ccccc1)C(=O)c1cc2cc(F)ccc2[nH]1` the activity change, negative = inhibition was inconclusive: 1.38%. With `COc1cc(NC(=S)NC(=O)CCc2ccccc2)cc(OC)c1` the activity change, negative = inhibition was “inactive”. With `Cc1cc(NC(=O)CCS(=O)(=O)c2nc(-c3ccccc3)cc(C(F)(F)F)n2)no1` the Potency was inconclusive: 4.11 µM [rising, full curve]. In the case of `O=C(Nc1cccc2ncccc12)c1cc2ccccc2o1`, the Potency is reported as inconclusive: 11.2 µM [falling, partial curve]. In the case of `c1ccc(Nc2nc(-c3ccncc3)cs2)nc1`, the activity change, negative = inhibition is reported as inconclusive: -18.5%. For `CCC(C)c1ccc(N(C(=O)c2ccco2)C(C(=O)NC2CCCC2)c2cccnc2)cc1` (stereo unspecified), the activity change, negative = inhibition was “inactive”. For `CC1(c2ccccc2Cl)NC(=O)N(CC(=O)Nc2ccc(N3CCCCC3)cc2)C1=O` (stereo unspecified), the activity change, negative = inhibition was inconclusive: 13%. In the case of `COc1cc2[nH]c(=O)n(CCC(=O)NCc3cccnc3)c(=O)c2cc1OC`, the activity change, negative = inhibition is reported as “inactive”. In the case of `O=C(Nc1ccc([N+](=O)[O-])cc1)Nc1ccc2[nH]c(=O)[nH]c2c1`, the activity change, negative = inhibition is reported as inconclusive: 7.76%. With `Cc1ccc(N2CCCn3c2nc2c3c(=O)n(CC(=O)OCc3ccccc3)c(=O)n2C)cc1C` the activity change, negative = inhibition was “inactive”. With `CCc1cccc(NC(=O)C2CCCC2)c1` the activity change, negative = inhibition was inconclusive: 0.0334%. In the case of `Cc1cc2c(cc1C)C(c1ccccc1OC(C)C)CC(=O)N2` (stereo unspecified), the Potency is reported as inconclusive: 35.5 µM [falling, single point]. With `Cc1oc(-c2ccc(-c3ccccc3)cc2)nc1CN(C)C1CCOC1` (stereo unspecified) the Potency was inconclusive: 1.58 µM [falling, full curve]. With `Cc1cnc(NC(=O)CCCc2nc3ccccc3s2)s1` the Potency was inconclusive: 8.91 µM [rising, partial curve, poor fit]. In the case of `CCOCCCNC(=S)N(CCO)Cc1cc2cc3c(cc2[nH]c1=O)OCCO3`, the activity change, negative = inhibition is reported as inconclusive: -11.9%. For `CN1/C(=C\C(=O)c2cccs2)Sc2ccccc21`, the activity change, negative = inhibition was inconclusive: -16.6%. In the case of `Cc1c(NC(=O)c2cc(Br)ccc2Cl)cccc1-n1cnnn1`, the activity change, negative = inhibition is reported as inconclusive: 1.48%. With `Cc1ccc(C(=O)NC(=S)N2CCN(c3ccccc3F)CC2)cc1` the activity change, negative = inhibition was inconclusive: 4.94%. With `COc1cc(/C=C(/C#N)C(=O)Nc2ccccc2)ccc1OCc1ccc(C(=O)O)cc1` the Potency was inconclusive: 31.6 µM [falling, single point]. For `CCCNC(=O)COCc1cc(-c2ccc(F)cc2)on1`, the Potency was inconclusive: 25.1 µM [falling, single point]. With `Cc1ccc(SCC(=O)OCc2csc(CC(=O)Nc3ccccc3C)n2)cc1C` the activity change, negative = inhibition was inconclusive: -14.5%. In the case of `COc1cc2[nH]c(C(=O)N3CCN(c4ccc(F)cc4)CC3)cc2c(OC)c1OC`, the activity change, negative = inhibition is reported as inconclusive: -0.753%. With `O=C(CSC1CCCCC1)Nc1nccs1` the activity change, negative = inhibition was “inactive”. With `COc1ccc(C(=O)CCS(=O)(=O)c2ccc(C)cc2)cc1` the activity change, negative = inhibition was inconclusive: 12.5%. In the case of `COc1ccc(S(=O)(=O)Nc2cc(Sc3ncn[nH]3)c(O)c3ccccc23)cc1`, the Potency is reported as inconclusive: 1.3 µM [falling, partial curve]. In the case of `CC(NC(=O)CCCN1C(=O)c2ccccc2C1=O)c1ccc2c(c1)CCCC2` (stereo unspecified), the Potency is reported as inconclusive: 4.11 µM [rising, full curve, poor fit]. In the case of `O=C(NCCc1ccccc1)c1cc2ccccc2oc1=O`, the Potency is reported as inconclusive: 8.91 µM [falling, partial curve, poor fit]. For `COc1ccc(/C=N/NC(=S)Nc2ccccc2)cc1COc1ccc(F)cc1`, the activity change, negative = inhibition was inconclusive: -0.0541%. With `CCCCCC/C(C)=C1/SC(=S)NC1=O` the Potency was inconclusive: 17.8 µM [rising, partial curve, poor fit]. With `N#CC1=C(SCC(=O)NC23CC4CC(CC(C4)C2)C3)NC(=O)C(C#N)C12CCCCC2` (stereo unspecified) the activity change, negative = inhibition was inconclusive: -15%. For `COc1ccc(C2NC(=S)N3C(c4ccc(OC)cc4)NC(=S)N23)cc1` (stereo unspecified), the activity change, negative = inhibition was inconclusive: 3.5%. With `O=S(=O)(N/N=C\c1cccnc1)c1ccccc1` the activity change, negative = inhibition was inconclusive: -29.6%. In the case of `Cc1ccn2c(Nc3ccccc3)c(-c3ccccn3)nc2c1`, the Potency is reported as inconclusive: 35.5 µM [falling, single point]. For `c1ccc(CNc2ncnc3c2cnn3Cc2ccccc2)cc1`, the activity change, negative = inhibition was inconclusive: 6.75%. For `COc1ccc(/C=N/Nc2ccc(C(=O)O)cc2)cc1OC`, the activity change, negative = inhibition was inconclusive: 120%. In the case of `NC(=NCc1ccc2c(c1)OCO2)NC(=O)c1ccccc1`, the activity change, negative = inhibition is reported as “inactive”. With `CCOC(=O)c1c(C)[nH]c(C(=O)OCC(=O)Nc2ccc(OC)c(Cl)c2)c1C` the activity change, negative = inhibition was inconclusive: 6.34%. For `Nc1ccc(Sc2nnnn2-c2ccccc2)c(Cl)c1`, the activity change, negative = inhibition was inconclusive: -20.5%. With `O=C(CCn1cnc2ccccc21)N/N=C/C=C/c1ccccc1` the activity change, negative = inhibition was “inactive”. In the case of `COC(=O)c1ccc(NC(=O)CN(c2ccc(C)cc2)S(=O)(=O)c2c(C)nn(C)c2C)cc1`, the activity change, negative = inhibition is reported as inconclusive: 16.7%. In the case of `CCOc1ccc(CN2CCNC(=O)C2CC(=O)NCc2csc(C(C)C)n2)cc1` (stereo unspecified), the activity change, negative = inhibition is reported as “inactive”. With `CC(C)(C)NC(=O)C(=O)NNC(=O)c1cccc(Br)c1` the activity change, negative = inhibition was inconclusive: -23.6%. For `Cc1ccc(C(=O)Nc2cccc(N(C)S(C)(=O)=O)c2)cc1S(=O)(=O)Nc1ccccc1`, the activity change, negative = inhibition was inconclusive: -6.14%. For `COc1ccc(CN(CC(=O)NC(C)C)C(=O)CCC(=O)Nc2nccs2)cc1`, the activity change, negative = inhibition was “inactive”. In the case of `CCOC(=O)C1CCN(C(=O)c2ccc(N3CCOCC3)c([N+](=O)[O-])c2)CC1`, the activity change, negative = inhibition is reported as inconclusive: -0.0793%. In the case of `Cc1ccccc1NC(=S)c1ccc2ccccc2n1`, the Potency is reported as inconclusive: 10 µM [falling, partial curve]. With `O=C(NC1CCCCCC1)c1cccs1` the Potency was inconclusive: 22.4 µM [falling, partial curve]. With `CCCN1Cc2cccc(C(=O)NCCc3ccccc3)c2C1=O` the activity change, negative = inhibition was inconclusive: 5.5%. For `COc1ccccc1N1CCN(C(=O)C(=O)N/N=C/c2cccc(O)c2)CC1`, the activity change, negative = inhibition was inconclusive: -4.96%. For `Cc1cc(C)cc(OCC(=O)N(Cc2ccc(N(C)C)cc2)C2CCS(=O)(=O)C2)c1` (stereo unspecified), the activity change, negative = inhibition was “inactive”. In the case of `COc1ccc(NC(=O)c2c(NCc3cccs3)sc3c2CCCC3)c(OC)c1`, the activity change, negative = inhibition is reported as inconclusive: 23.1%. In the case of `COc1ccc(/C=N/NC(=O)c2[nH]c(C)c(C(=O)N/N=C/c3ccc(OC)cc3)c2C)cc1`, the Potency is reported as inconclusive: 11.6 µM [falling, partial curve, poor fit]. In the case of `COc1cccc(C(=O)NC(=S)Nc2cccnc2)c1`, the Potency is reported as inconclusive: 16.4 µM [falling, partial curve]. For `Cc1ccc2nc(NC(=S)NC(=O)c3cccs3)sc2c1`, the Potency was inconclusive: 20 µM [falling, partial curve, poor fit]. For `CCOP(=O)(OCC)c1nc(-c2cccc3ccccc23)oc1NCc1ccc(OC)cc1`, the Potency was inconclusive: 3.98 µM [falling, partial curve]. In the case of `Cc1ccc(C2CC(c3cccs3)=NN2C(=O)CSC2=NCCS2)cc1` (stereo unspecified), the activity change, negative = inhibition is reported as inconclusive: -10.9%. With `O=S(=O)(NN=C1CCCCCC1)c1ccccc1` the activity change, negative = inhibition was “inactive”. With `CCCNC(=O)Cn1c(=O)/c(=C\c2ccc(-c3ccc([N+](=O)[O-])cc3)o2)s/c1=C\C(=O)C(C)(C)C` the activity change, negative = inhibition was inconclusive: 0.916%. In the case of `Cc1ccc(-c2ccc(=O)n(CC(=O)NCCc3ccc(Cl)cc3)n2)cc1`, the activity change, negative = inhibition is reported as “inactive”. For `CC(=O)OCCCNc1cc(SCc2ccco2)c2nonc2c1[N+](=O)[O-]`, the Potency was inconclusive: 20.6 µM [falling, single point]. With `O=C(/C=C/c1ccccc1)Oc1coc(CSc2ncccn2)cc1=O` the activity change, negative = inhibition was inconclusive: -11.8%. With `O=S(=O)(NCCC1=CCCCC1)c1cccc(S(=O)(=O)N2CCOCC2)c1` the activity change, negative = inhibition was “inactive”. In the case of `COC(=O)c1nn(-c2ccc3c(c2)OCO3)cc1O`, the activity change, negative = inhibition is reported as “inactive”. In the case of `COc1ccc2[nH]c(C(=O)Nc3ccccc3Cl)cc2c1`, the Potency is reported as inconclusive: 22.4 µM [falling, partial curve, poor fit]. In the case of `Cc1ccc(C)c(NC(=O)CN(C)C(=O)c2cccc(Oc3ccccc3)c2)c1`, the Potency is reported as inconclusive: 20.6 µM [falling, partial curve, poor fit]. For `COc1ccc(NC(=O)NCCN2CCN(c3cccc(Cl)c3)CC2)cc1`, the activity change, negative = inhibition was “inactive”. In the case of `O=C(O)Cc1sc(-c2cccnc2)nc1-c1ccc(Br)cc1`, the Potency is reported as inconclusive: 35.5 µM [falling, single point]. In the case of `CCNC(=S)N(CCc1c(C)[nH]c2ccc(Cl)cc12)Cc1ccco1`, the activity change, negative = inhibition is reported as inconclusive: 1.18%. With `O=C(COC(=O)c1ccc([N+](=O)[O-])o1)NC1CCCC1` the activity change, negative = inhibition was inconclusive: 2.04%. With `Cc1ccc(N=Nc2ccc(O)c(/C=N\NC(=O)c3ccc(N)cc3)c2)cc1C` the Potency was inconclusive: 32.6 µM [falling, single point]. In the case of `Cc1nnc2ccc(-c3cccc(NS(=O)(=O)c4cc(F)ccc4F)c3)nn12`, the activity change, negative = inhibition is reported as inconclusive: 7.07%. In the case of `Cc1cccc(Nc2ncccc2C(=O)NCc2cccs2)c1C`, the activity change, negative = inhibition is reported as “inactive”. With `C[C@H](NC(=O)c1[nH]cnc1C(=O)Nc1cccc(Cl)c1)c1ccccc1` the activity change, negative = inhibition was “inactive”. In the case of `Nc1n[nH]c(N)c1N=Nc1ccc(Cl)cc1`, the activity change, negative = inhibition is reported as inconclusive: -3.48%. In the case of `CC(C(=O)N1CCN(c2ccc([N+](=O)[O-])cc2)CC1)N1C(=O)C2CC=CCC2C1=O` (stereo unspecified), the activity change, negative = inhibition is reported as inconclusive: 0.568%.
